# Article PMC3979408
# By UniProt entry, the sequences of proteins in these tests, tags left out.
# UniProt Q15596: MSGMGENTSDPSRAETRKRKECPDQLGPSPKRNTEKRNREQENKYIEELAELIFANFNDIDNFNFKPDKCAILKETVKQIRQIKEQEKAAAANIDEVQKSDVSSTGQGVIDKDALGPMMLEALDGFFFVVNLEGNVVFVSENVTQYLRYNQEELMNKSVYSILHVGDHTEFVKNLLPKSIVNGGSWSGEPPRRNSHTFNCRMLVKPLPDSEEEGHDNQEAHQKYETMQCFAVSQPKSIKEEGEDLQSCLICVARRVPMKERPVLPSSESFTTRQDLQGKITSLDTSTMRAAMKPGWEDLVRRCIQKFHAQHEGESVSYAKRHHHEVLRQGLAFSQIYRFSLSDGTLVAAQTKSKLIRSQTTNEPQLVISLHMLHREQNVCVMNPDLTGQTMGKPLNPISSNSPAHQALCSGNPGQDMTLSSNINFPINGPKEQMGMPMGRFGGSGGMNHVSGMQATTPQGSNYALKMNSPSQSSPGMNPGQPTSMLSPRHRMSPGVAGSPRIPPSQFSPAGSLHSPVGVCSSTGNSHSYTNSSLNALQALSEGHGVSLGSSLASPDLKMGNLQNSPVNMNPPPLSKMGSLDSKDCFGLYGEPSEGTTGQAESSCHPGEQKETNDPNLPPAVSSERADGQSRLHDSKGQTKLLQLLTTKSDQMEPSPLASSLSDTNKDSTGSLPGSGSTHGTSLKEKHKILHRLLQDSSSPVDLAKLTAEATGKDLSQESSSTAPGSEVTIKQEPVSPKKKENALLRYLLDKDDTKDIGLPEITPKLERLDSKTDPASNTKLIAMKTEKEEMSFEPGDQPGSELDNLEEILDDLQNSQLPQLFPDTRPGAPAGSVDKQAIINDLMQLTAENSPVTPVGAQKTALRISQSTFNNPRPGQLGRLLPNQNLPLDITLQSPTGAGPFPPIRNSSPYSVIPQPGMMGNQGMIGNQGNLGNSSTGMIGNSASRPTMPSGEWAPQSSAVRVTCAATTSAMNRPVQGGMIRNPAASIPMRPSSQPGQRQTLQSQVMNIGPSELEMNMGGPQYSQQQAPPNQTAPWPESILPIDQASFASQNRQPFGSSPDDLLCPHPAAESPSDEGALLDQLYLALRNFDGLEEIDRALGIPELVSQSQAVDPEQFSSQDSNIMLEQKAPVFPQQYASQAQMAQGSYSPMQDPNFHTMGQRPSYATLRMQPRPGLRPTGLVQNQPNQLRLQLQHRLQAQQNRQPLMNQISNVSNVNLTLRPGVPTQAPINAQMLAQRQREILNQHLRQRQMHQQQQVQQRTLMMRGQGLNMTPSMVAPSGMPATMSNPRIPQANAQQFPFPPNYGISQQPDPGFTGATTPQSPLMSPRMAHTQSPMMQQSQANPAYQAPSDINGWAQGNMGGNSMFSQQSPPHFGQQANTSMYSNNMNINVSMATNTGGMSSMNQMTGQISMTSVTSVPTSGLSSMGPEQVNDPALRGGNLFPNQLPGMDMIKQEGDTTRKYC
# UniProt P04150: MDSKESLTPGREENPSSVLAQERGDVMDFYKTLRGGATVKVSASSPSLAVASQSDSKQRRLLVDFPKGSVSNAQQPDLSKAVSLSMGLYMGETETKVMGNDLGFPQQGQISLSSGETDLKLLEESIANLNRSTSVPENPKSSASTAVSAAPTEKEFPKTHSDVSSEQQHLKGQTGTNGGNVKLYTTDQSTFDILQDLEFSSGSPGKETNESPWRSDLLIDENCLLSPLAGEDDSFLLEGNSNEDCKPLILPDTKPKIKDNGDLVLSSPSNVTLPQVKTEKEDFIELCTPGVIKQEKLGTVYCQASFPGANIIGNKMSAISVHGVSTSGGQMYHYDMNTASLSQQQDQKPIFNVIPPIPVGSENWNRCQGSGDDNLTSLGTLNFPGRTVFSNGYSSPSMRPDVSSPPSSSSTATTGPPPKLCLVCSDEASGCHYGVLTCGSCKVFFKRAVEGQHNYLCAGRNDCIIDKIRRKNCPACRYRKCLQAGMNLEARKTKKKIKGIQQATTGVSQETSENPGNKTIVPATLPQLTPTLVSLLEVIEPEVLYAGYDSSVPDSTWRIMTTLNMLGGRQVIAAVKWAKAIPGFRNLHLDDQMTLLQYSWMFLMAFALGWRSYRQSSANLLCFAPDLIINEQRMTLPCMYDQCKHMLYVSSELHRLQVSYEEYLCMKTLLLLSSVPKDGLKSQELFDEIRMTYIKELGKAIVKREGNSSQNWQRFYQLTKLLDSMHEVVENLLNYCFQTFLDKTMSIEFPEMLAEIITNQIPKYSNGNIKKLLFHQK
# No constants are given. Whether binding was seen depends on the method and setting. In cells and extracts the contact can be indirect. Some results given as binding are weak or reduced against the parent protein; the word gives no strength.
# B1: WBSCR22/metastasis-related methyltransferase 1 (Merm1), endogenous (protein, UniProt O43709 1-281)
# chain: MASRGRRPEHGGPPELFYDETEARKYVRNSRMIDIQTRMAGRALELLYLPENKPCYLLDIGCGTGLSGSYLSDEGHYWVGLDISPAMLDEAVDREIEGDLLLGDMGQGIPFKPGTFDGCISISAVQWLCNANKKSENPAKRLYCFFASLFSVLVRGSRAVLQLYPENSEQLELITTQATKAGFSGGMVVDYPNSAKAKKFYLCLFSGPSTFIPEGLSENQDEVEPRESVFTNERFPLRMSRRGMVRKSRAWVLEKKERHRRQGREVRPDTQYTGRKRKPRF
# Columns and labels:
# [1] = target: GRIP1/SRC2, endogenous (human (endogenous in A549)) (UniProt Q15596); test: co-IP; A549 cells, vehicle or 100 nM Dex for 1 h; immunoprecipitation with a GRIP1 antibody; immunoblot for GRIP1 and Merm1
# [2] = target: glucocorticoid receptor (GR), endogenous (human (endogenous in A549)) (UniProt P04150); test: co-IP; A549 cells, vehicle or 100 nM Dex for 1 h; DNase-treated lysate, anti-GR antibody (BD Bioscience) and anti-mouse IgG Dynabeads at 4 °C; immunoblot for GR and Merm1; mouse IgG as control
# [3] = target: Halo-tag glucocorticoid receptor (UniProt P04150); test: pull-down; A549 cells transfected with Halo-tag-GR or Halo-tag control vector, vehicle or 100 nM Dex for 1 h; lysate bound to Halo-link resin, released with TEV protease; immunoblot for GR and Merm1
binder,measurement,setting,value
B1,binding,[1],binds weakly
same,binding,[2],no binding
same,binding,[3],no binding
